Here are results for 93 molecules from PubChem BioAssay AID463205 (Broad Institute, 2010).

In all, about 2,400 compounds went through this assay and about 20 (0.8%) were called active.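 The calls were made as follows: active = AC50 no more than ten times the highest tested concentration, or full inhibition at every dose giving a flat fit (cut at about 30 µM in these data); inconclusive = flat fit with activity between 30% and 70%, or poor-quality invalid fit; inactive = AC50 more than ten times the top tested dose.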 This is one part of the list.

The nature of this assay: inhibitors of ADP-Glo detection reagents, dose response, artefact control for GSK-3a inhibitor project, biochemical, luminescence, cell-free, homogeneous (AID 463205).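 Also: kinase-free counter-screen against the ADP-Glo detection reagents only; potency is for inhibitors that reduce the luminescence signal.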 The conditions noted are these: 5 uM ADP. (ADP-Glo turns the ADP formed in a reaction into a luminescent signal.)
Usually AC50 stands for the concentration at which the activity in the assay is half-maximal. For the molecule `Cc1ccc(-c2nnc3n2N=C(c2ccccc2)CS3)cc1`, the AC50 was inactive: > 30 µM.

Consider `Cc1nc2ncnn2c(C)c1Cc1ccccc1Cl`, for which the AC50 was inactive: > 30 µM.

Take `COc1ccc(OCC(=O)N2CCN(c3nnc(-c4ccc(C)cc4)c4ccccc34)CC2)cc1`: the AC50 is inactive: > 30 µM.

Take `COCc1c(C(=O)N/N=C\c2cccnc2)nnn1-c1nonc1N`: the AC50 was inactive: > 30 µM. As for `CCOc1cccc(-c2c(C(=O)N/N=C/c3ccncc3)nnn2-c2nonc2N)c1`, the figure is inactive: > 30 µM; as for `CN(C)S(=O)(=O)c1cccc(NC(=S)NN=C(Cc2ccccc2)Cc2ccccc2)c1`, inactive: > 30 µM.

For `O=C(O)c1cccc2c1C(=O)c1cc(Br)ccc1S2(=O)=O`, the AC50 is inactive: > 30 µM. As for `COc1ccccc1NC(=O)c1ccc(C(=O)c2ccccc2)o1`, the figure is inactive: > 30 µM; as for `N#Cc1c(Nc2ccccc2)c(C=O)c[nH]c1=O`, inactive: > 30 µM. Consider `COc1ccc(NC(=O)CSc2nc3[nH]ncc3c(=O)n2-c2ccccc2OC)cc1OC`, for which the AC50 is inactive: > 30 µM. As for `CCN1C(=O)c2ccc(C(=O)NCc3ccc4c(c3)OCO4)cc2C1=O`, the figure is inactive: > 30 µM; as for `O=C(CSc1nnc(SCc2ccccc2)s1)N/N=C/c1ccc(C(=O)O)cc1`, inactive: > 30 µM. As for `CCOc1ccc(C2C3=C(CCCC3=O)Nc3ccc4ncccc4c32)cc1` (stereo not drawn), the figure is inactive: > 30 µM; as for `CCOc1ccc(Cn2nnc(C(=O)Nc3ccc(OC)cc3OC)c2N)cc1`, inactive: > 30 µM.

Regarding `CCOC(=O)c1[nH]cnc1C(=O)Nc1ccncc1`, the AC50 was inactive: > 30 µM. For `CC1(C)CC(NC(=O)COc2ccccc2Cl)CC(C)(C)N1`, the AC50 was inactive: > 30 µM. With `Cn1c(=O)c2c(-c3ccccc3)n3c4ccccc4ncc3c2n(C)c1=O`, the AC50 is inactive: > 30 µM.

For the molecule `CC1(c2ccccc2)CC(C)(C)N2C(=O)/C(=C3\SC(=S)NC3=O)c3cccc1c32` (stereo not drawn), the AC50 was inactive: > 30 µM. Then `NC(=O)c1cc([N+](=O)[O-])ccc1NCc1ccc(N)cc1`, with inactive: > 30 µM; and `CN(Cc1c(C(=O)N/N=C/c2cccc(O)c2)nnn1-c1nonc1N)c1ccccc1`, with inactive: > 30 µM; and `Cc1cc(OC(=O)c2c(C)cc(O)cc2O)cc(O)c1C(=O)O`, with inactive: > 30 µM. Then `C/C(=N\NC(=O)c1nnn(-c2nonc2N)c1-c1cccs1)c1cccnc1`, with inactive: > 30 µM; and `Cc1cnn(C(=O)c2ccccc2Br)c1`, with inactive: > 30 µM. Then `O=C1/C(=C/c2ccco2)Oc2c1ccc(O)c2CN1CCCCC1`, with inactive: > 30 µM; and `Cc1ccc(C(=O)c2cnc3cc4c(cc3c2S(=O)(=O)c2ccccc2)OCCO4)cc1`, with inactive: > 30 µM; and `CC(C)CSc1ncnc2c1oc1nc3c(cc12)COC(C)(C)C3`, with inactive: > 30 µM. As to `CC(C)(C)CNc1cc(N2CCCC2)ccc1[N+](=O)[O-]`, the AC50 is inactive: > 30 µM. On to `O=C(Nc1ccccc1C(=O)NC1CCCCC1)c1ccccc1`, for which the AC50 is inactive: > 30 µM. As for `O=C(CSc1ncnc2sc3c(c12)CCC3)NCC1CCCO1` (stereo not drawn), the figure is inactive: > 30 µM. As for `O=C(NCCN1CCc2ccccc2C1)Nc1ccc(F)cc1`, the figure is inactive: > 30 µM.

Regarding `C[n+]1cccc(C2C(C#N)=C(N)Oc3c2ccc2ccccc32)c1` (stereo not drawn), the AC50 was inactive: > 30 µM. As to `N#Cc1c(NC(=O)CSc2n[nH]c(N)n2)oc(-c2ccccc2)c1-c1ccccc1`, the AC50 was inactive: > 30 µM. Consider `COC1(OC)N=C(N)C2(C#N)C(c3ccc(C)cc3)C12C#N` (stereo not drawn), for which the AC50 was inactive: > 30 µM. Then `COc1ccc(OC)c(C2=Nn3c(nnc3-c3ccncc3)SC2)c1`, with inactive: > 30 µM.

With `O=c1[nH]nc(SCc2ccccc2Cl)n1-c1ccc2c(c1)OCCO2`, the AC50 was inactive: > 30 µM. As for `O=C(CSc1nc2[nH]ncc2c(=O)n1-c1ccccc1)NCCc1ccccc1`, the figure is inactive: > 30 µM; as for `NC(=O)c1cc([N+](=O)[O-])ccc1NCc1ccc(O)cc1`, inactive: > 30 µM; as for `Oc1cccc(Nc2nc(NCC3CCCO3)c3ccccc3n2)c1` (stereo not drawn), inactive: > 30 µM. Then `Cc1ccc(S(=O)(=O)Nc2ccc(O)c3cccnc23)cc1`, with inactive: > 30 µM. As for `C#CCOCCOCCOCCNc1nc(N2CCN(C(=O)[C@H](CCC(=O)O)n3cc([C@@H](N)CCCCN)nn3)CC2)nc(N2CCN(C(=O)[C@H](CCC(=O)O)n3cc([C@@H](N)CCCCN)nn3)CC2)n1`, the figure is inactive: > 30 µM; as for `NC(=O)c1oc2ccccc2c1NC(=O)c1ccc(F)cc1`, inactive: > 30 µM.

Turning to `CCCC1=C(C(=O)OCC)C(c2ccc(N(C)C)cc2)n2ncnc2N1` (stereo not drawn), the AC50 was inactive: > 30 µM. As for `O=C(CCn1[nH]c(=O)c2ccccc2c1=O)N1CCOCC1`, the figure is inactive: > 30 µM; as for `CCC(=O)/C=C1\Sc2ccc(OC)cc2N1CCO`, inactive: > 30 µM; as for `Cc1ccc(N=C2NC(=O)/C(=C\c3ccc(C)s3)S2)cc1`, inactive: > 30 µM. Then `O=C(Nc1ccsc1C(=O)O)c1ccc(Cl)cc1`, with inactive: > 30 µM; and `CCOc1ccccc1C1CC(=O)NC2=C1C(=O)CC(C)(C)C2` (stereo not drawn), with inactive: > 30 µM; and `CCOC(=O)c1cnc2c(C(F)(F)F)cccc2c1N1CCN(C)CC1`, with inactive: > 30 µM. Then `O=S(=O)(O)c1ccc(N=Nc2ccccc2)cc1`, with inactive: > 30 µM; and `O=S(=O)(c1ccc(Cl)nc1)N1CCN(Cc2ccc3c(c2)OCO3)CC1`, with inactive: > 30 µM; and `COc1ccccc1NC(=O)CCSc1nnc(-c2ccncc2)o1`, with inactive: > 30 µM.

For `O=[N+]([O-])c1cnccc1NC1CCCCC1`, the AC50 was inactive: > 30 µM. Take `O=C1c2cnc3ncnn3c2CC2c3ccccc3CCN12` (stereo not drawn): the AC50 was inactive: > 30 µM.

`COc1cc(OC)cc(-c2nnc(SCc3c(F)cccc3Cl)o2)c1`: the AC50 was inactive: > 30 µM.

On to `Nc1nonc1-n1nnc(C(=O)N/N=C\c2cccc(Cl)c2)c1CN1CCOCC1`, for which the AC50 is inactive: > 30 µM. As for `COc1ccc(CC(=O)NCCc2cnc[nH]2)cc1`, the figure is inactive: > 30 µM. As for `O=C(CSc1nnc(-c2ccc(O)cc2)o1)Nc1ccccc1`, the figure is inactive: > 30 µM; as for `N#CCSc1nnc(-c2ccc3c(c2)OCO3)o1`, inactive: > 30 µM. As for `O=C(COc1ccccc1F)NC12CC3CC(CC(C3)C1)C2`, the figure is inactive: > 30 µM; as for `Nc1c(O)ccc2c1C(=O)c1ccccc1C2=O`, inactive: > 30 µM. For the molecule `O=C(O)CCNc1ccc(NCCC(=O)O)c2c1C(=O)c1ccccc1C2=O`, the AC50 was inactive: > 30 µM. Regarding `Clc1cccc(Nc2ncnc3ccc(Br)cc23)c1`, the AC50 is inactive: > 30 µM.

Consider `Fc1ccccc1N1CCN(CCCNc2ccc3nncn3n2)CC1`, for which the AC50 is inactive: > 30 µM. As for `CCOC(=O)c1cc(-c2ccccc2)n(CCC(=O)NC(C)CC)c1C` (stereo not drawn), the figure is inactive: > 30 µM. With `COC(=O)c1c(NC(=O)CN2C(=O)NC3(CCc4ccccc4C3)C2=O)sc2c1CCCCC2` (stereo not drawn), the AC50 is inactive: > 30 µM.

For `O=C(NCCCN1CCOCC1)c1ccc(Cl)cc1[N+](=O)[O-]`, the AC50 was inactive: > 30 µM. Consider `COc1ccc(OCC(=O)Nc2ccc3c(c2)C(=O)NC3=O)cc1`, for which the AC50 was inactive: > 30 µM. As for `CCCC1=C(C(=O)OCC)C(c2ccncc2)n2ncnc2N1` (stereo not drawn), the figure is inactive: > 30 µM; as for `CSc1nc2n(n1)C(c1ccccn1)C1=C(CC(C)(C)CC1=O)N2` (stereo not drawn), inactive: > 30 µM. As for `CCOC(=O)N1CC=C2C(C#N)=C(N)C(C#N)(C#N)[C@H](c3cccs3)[C@H]2C1`, the AC50 was inactive: > 30 µM. As for `Nc1nc(-c2ccccc2)nc(-c2ccccc2O)n1`, the figure is inactive: > 30 µM; as for `CSCCC1NC(=S)N(Cc2ccccc2)C1=O` (stereo not drawn), inactive: > 30 µM; as for `c1ccc2[nH]c(Cn3nnc4ccccc43)nc2c1`, inactive: > 30 µM. Then `COc1ccc(/C=C/c2nc3ccccc3n2C)cc1`, with active: 14.3 µM; and `O=C(COC(=O)c1cccs1)Nc1ccc(Cl)cn1`, with inactive: > 30 µM. As for `COc1ccccc1N/C=C/c1onc(C)c1[N+](=O)[O-]`, the figure is inactive: > 30 µM; as for `O=C(CSc1nnc(-c2ccc(O)cc2)o1)Nc1ccc2c(c1)OCCO2`, inactive: > 30 µM; as for `c1cncc(CSc2nnc3ccc(-c4cccs4)nn23)c1`, inactive: > 30 µM.

`O=C1NC(=S)N/C1=C\c1ccc(N2CCOCC2)cc1`: the AC50 was inactive: > 30 µM. For `COc1ccc(-c2nc(NC(=O)C3CC(=O)N(c4ccc5c(c4)OCCO5)C3)sc2C)cc1` (stereo not drawn), the AC50 was inactive: > 30 µM. Then `O=C(Nc1n[nH]c(=S)s1)c1ccc2ccccc2c1`, with inactive: > 30 µM. As for `CC(=O)c1cc(-c2ccc(F)cc2)n(CCC(=O)Nc2cccc(C)n2)c1C`, the figure is inactive: > 30 µM; as for `O=C(CSc1ccc2nnc(-c3ccc(F)cc3)n2n1)N1CCCc2ccccc21`, inactive: > 30 µM; as for `Cc1ccnc(SCC(=O)Nc2sc3c(c2C#N)CCCC3)n1`, inactive: > 30 µM. Then `COc1ccc(CC(=O)Nc2nccs2)cc1S(=O)(=O)N1CCOCC1`, with inactive: > 30 µM; and `N#C/C(=N\Nc1ccccc1Cl)C(=O)c1ccccc1`, with inactive: > 30 µM. In the case of `COc1cccc(C2C3(C#N)C(N)=NC(OC)(OC)C23C#N)c1` (stereo not drawn), the AC50 is inactive: > 30 µM. As for `CC(=C/c1ccco1)/C=N/NC(=O)c1nnn(-c2nonc2N)c1CN(C)C`, the figure is inactive: > 30 µM; as for `O=C(CSc1ncccc1-c1nc2ccccc2[nH]1)NCc1ccco1`, inactive: > 30 µM. As for `CCOC(=O)c1ccc(NC(=O)CSCc2ccco2)cc1`, the AC50 is inactive: > 30 µM. Then `CC(/C=N/NC(=O)c1nnn(-c2nonc2N)c1C(C)C)=C\c1ccco1`, with inactive: > 30 µM. As to `CN(C)c1ccc(/C=N/NC(=O)c2ccc(Cl)cc2)cc1`, the AC50 is inactive: > 30 µM. As for `CN1CCN(Cc2c(C(=O)N/N=C/c3cccc(Br)c3)nnn2-c2nonc2N)CC1`, the figure is inactive: > 30 µM.
